This experiment addresses T1, Arabidopsis response regulator 22 (ARR22), yeast two-hybrid fusion (Arabidopsis thaliana) (UniProt Q9M8Y4).
T1 sequence: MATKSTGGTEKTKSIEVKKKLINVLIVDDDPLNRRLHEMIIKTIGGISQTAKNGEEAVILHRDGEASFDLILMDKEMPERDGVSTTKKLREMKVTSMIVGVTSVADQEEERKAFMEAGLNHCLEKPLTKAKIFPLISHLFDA
Nature of the experiment: two-hybrid; Matchmaker system, yeast strain PJ69-4A; BD-ARR22 bait (pGBKT7-DEST), AD preys (pGADT7-DEST); growth on interaction selective medium (CSM-L-, W-, Ade-) at 28 C and LacZ (beta-galactosidase) activity in extracts of 3 independent clones.

Chains of the proteins cited; added tags and fusions are not shown. Lines headed by an entry give the natural chain unless they say otherwise; changes in a name come on top.
UniProt Q9C5U0: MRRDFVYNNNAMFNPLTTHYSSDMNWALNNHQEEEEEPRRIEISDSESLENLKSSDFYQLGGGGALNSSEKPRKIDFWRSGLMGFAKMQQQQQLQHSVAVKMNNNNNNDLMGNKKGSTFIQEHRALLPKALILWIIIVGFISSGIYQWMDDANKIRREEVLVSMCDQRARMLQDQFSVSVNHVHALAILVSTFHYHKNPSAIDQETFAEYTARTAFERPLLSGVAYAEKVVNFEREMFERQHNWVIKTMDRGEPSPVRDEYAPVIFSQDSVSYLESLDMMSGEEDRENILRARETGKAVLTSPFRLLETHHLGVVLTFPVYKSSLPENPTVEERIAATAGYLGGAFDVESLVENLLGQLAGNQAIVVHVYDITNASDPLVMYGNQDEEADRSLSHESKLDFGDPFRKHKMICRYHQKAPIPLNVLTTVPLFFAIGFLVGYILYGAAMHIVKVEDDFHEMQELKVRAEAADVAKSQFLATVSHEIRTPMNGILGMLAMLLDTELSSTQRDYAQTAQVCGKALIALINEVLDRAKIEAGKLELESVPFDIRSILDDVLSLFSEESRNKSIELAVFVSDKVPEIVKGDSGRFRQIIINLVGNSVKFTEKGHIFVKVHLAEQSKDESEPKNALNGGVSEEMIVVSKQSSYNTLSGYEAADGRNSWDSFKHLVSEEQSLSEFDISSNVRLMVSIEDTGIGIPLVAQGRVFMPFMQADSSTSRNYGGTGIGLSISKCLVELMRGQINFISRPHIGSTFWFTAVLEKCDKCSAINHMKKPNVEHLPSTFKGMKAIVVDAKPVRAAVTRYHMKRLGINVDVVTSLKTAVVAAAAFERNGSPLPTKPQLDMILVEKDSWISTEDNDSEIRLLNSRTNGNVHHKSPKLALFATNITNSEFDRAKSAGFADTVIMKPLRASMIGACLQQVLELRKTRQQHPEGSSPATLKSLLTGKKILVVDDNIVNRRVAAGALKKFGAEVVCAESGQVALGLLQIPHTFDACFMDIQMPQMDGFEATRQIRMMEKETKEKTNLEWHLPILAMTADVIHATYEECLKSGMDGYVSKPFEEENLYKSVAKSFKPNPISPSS

These are yes or no findings as the source states them, for the method shown. Sequences can lack the tags named with a protein.

Take “histidine kinase (HK) domain of the cytokinin receptor AHK4, AD fusion (from UniProt Q9C5U0) (domain or fragment)”: the binding entry is listed as “no binding”.

The record behind these values is PMC2478664.
